This passage reports AC50 results from PubChem BioAssay AID445 (National Center for Advancing Translational Sciences (NCATS), 2006).

Some of the results follow. Shown are side measurements of this screen, not its main read-out; they come without a call. Compounds called inactive in the main read-out are mostly missing here. Potencies come from curve fits of mixed quality, noted in brackets.

This experiment is described as follows: IkB Signaling. The following applies: ABC-DLBCL IkBa-CBG/CBR dual luciferase ratio (green luciferase fused to IkBa over red control in OCI-Ly3 lymphoma cells), 4 h; measured here: control luc red channel unless noted. In a few lines: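 In this assay, an IκBα–CBG68 fusion accumulates when IKK-driven degradation is blocked; native CBR normalizes for cell number. OCI-Ly3 cells were treated 4 h with compound and doxycycline, then green and red light read after Chroma-Glo addition.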
`O=S(=O)(NCCc1nnc2ccc(SCc3ccc(C(F)(F)F)cc3)nn12)c1ccccc1`: the AC50 (as a rule, the midpoint of the concentration-response curve, whichever way the signal moves) is 12.6 µM [falling, partial curve].
The result for `COC(=O)c1[nH]c2ccc(C)cc2c1NC(=O)CN1CCN(c2ccccc2)CC1` reads 12.6 µM [falling, partial curve]; that for `CC(C)OCCCNc1sc(S(=O)(=O)c2ccccc2)nc1S(=O)(=O)c1ccc(Cl)cc1`, 15.8 µM [falling, single point].
With `Oc1cc2c(cc1O)[C@H]1c3ccc(O)c(O)c3OC[C@@]1(O)C2`, the AC50 was 12.6 µM [falling, partial curve].
The result for `CCOc1ccccc1NC(=O)CSc1nc2c(oc3ccccc32)c(=O)n1C(C)C` reads 39.8 µM [falling, single point]; that for `Cc1ccc(Cn2c(=O)n(CC3CCC(C(=O)N4CCC(C)CC4)CC3)c(=O)c3sccc32)cc1` (stereo not given), 25.1 µM [falling, partial curve].
The result for `Cc1cc(O)c2c(-c3ccccc3)cc(=O)oc2c1` reads 20 µM [falling, partial curve]; that for `CCOC(=O)C1(C)C=C(Nc2ccc(Br)cc2)C(=O)N1c1ccccc1` (stereo not given), 10 µM [falling, partial curve]; that for `CCn1c(=NC(=O)c2ccc3c(c2)OCCO3)sc2c(C)ccc(OC)c21`, 3.16 µM [rising, partial curve].
To `C=C(C)COc1ccc(-c2[nH]ncc2-c2ccccc2OC)c(O)c1` belongs 25.1 µM [falling, partial curve]; to `Cc1ccc(C)c2[nH]c(=O)c(CN(Cc3ccco3)S(=O)(=O)c3ccc4c(c3)OCCO4)cc12`, 10 µM [falling, partial curve]; to `Cc1nn(C(C)C(=O)NC2CCCCC2)c(=O)c2c1sc1ccccc12` (stereo not given), 3.98 µM [falling, full curve].
As for `COc1ccc(CC(=O)NC2CC(=O)N(c3cccc(F)c3)C2)cc1` (stereo not given), the AC50 was 7.94 µM [falling, single point].
To `Cc1ccc(-c2nnc(Nc3ccc(Br)cc3)c3ccccc23)cc1S(=O)(=O)N1CCN(C)CC1` belongs 1.26 µM [falling, full curve]; to `Cc1ccc(OCC(=O)Nc2ccc(OCc3cc(=O)n4cccc(C)c4n3)cc2)cc1C`, 39.8 µM [rising, single point]; to `CCN(C(=O)C(=O)Nc1ccc2nc3n(c(=O)c2c1)CCCCC3)c1ccc(F)cc1`, 15.8 µM [falling, partial curve].
To `Cc1c(C(=O)N(Cc2ccc(N(C)C)cc2)C2CCS(=O)(=O)C2)oc2ccccc12` (stereo not given) belongs 0.316 µM [falling, full curve, poor fit]; to `COc1cc(C(=O)CC2(O)C(=O)N(Cc3ccccc3Cl)c3ccccc32)cc(OC)c1OC` (stereo not given), 39.8 µM [falling, single point].
The result for `Cc1ccc2sc(N(Cc3cccnc3)C(=O)CCOc3ccccc3)nc2c1C` reads 25.1 µM [falling, single point]; that for `Cc1ccccc1-c1nc(CS(=O)CC(=O)N2CCN(c3cc(Cl)ccc3C)CC2)c(C)o1` (stereo not given), 15.8 µM [falling, partial curve].
`CCN(CC)CCCNC(=O)Cn1nc(C)n2c(cc3sccc32)c1=O`: the AC50 is 3.16 µM [rising, full curve].
To `COc1ccc(Cn2nnc3c(=O)[nH]c(C4CCCN(C(=O)c5ccc(C)cc5)C4)nc32)cc1` (stereo not given) belongs 5.01 µM [rising, partial curve, poor fit]; to `CCOc1ccc(OCC)c(NC(=O)CSc2nc3cccnc3n2C)c1`, 25.1 µM [falling, partial curve]; to `COc1ccc(CCNC(=O)Cn2c(=O)n(-c3ccc(C)c(C)c3)c(=O)c3c(C)c(C)sc32)cc1OC`, 15.8 µM [falling, single point].
The result for `O=C(Cn1c2c(c(-c3ccccc3)cc1=O)CCCC2)N1CCCCCC1` reads 15.8 µM [falling, partial curve]; that for `COc1cccc(-c2nn(C)c3sc(C(=O)NCc4ccccn4)cc23)c1`, 3.98 µM [falling, partial curve].
To `COc1ccc(OC)c(C(=O)c2c(N)c(-c3nc(-c4ccc(C)c(C)c4)cs3)c3ccccn23)c1` belongs 10 µM [falling, partial curve]; to `Cc1cc(C)c2nc(N3CCCC(C(=O)NCc4cccc(Br)c4)C3)sc2c1` (stereo not given), 10 µM [falling, partial curve].
As for `Fc1ccc(Nc2nc3ccccc3c3nncn23)c(Cl)c1`, the AC50 was 1 µM [rising, full curve].
For `CCN(C(=O)c1cc2cc3ccc(C)cc3nc2o1)c1ccc(OC)cc1`, the AC50 was 25.1 µM [falling, single point].
The result for `CCOc1ccccc1N1CCN(C(=O)c2cc3c(s2)CCC3)CC1` reads 39.8 µM [falling, single point]; that for `COc1ccccc1N(CC(=O)NC1CCCC1)C(=O)c1csnn1`, 20 µM [falling, partial curve].
To `Cc1ccc(NC(=O)c2oc3ccc(S(=O)(=O)N4CCCCCC4)cc3c2C)cc1Cl` belongs 10 µM [falling, partial curve]; to `CCOC(=O)c1ccc(N2CCN(c3ccccc3F)CC2)c(NC(=O)Nc2ccc(Cl)c(Cl)c2)c1`, 10 µM [falling, partial curve]; to `CCSC1=C(C#N)C(c2cccc(Br)c2)CC(=O)N1` (stereo not given), 25.1 µM [falling, partial curve].
Regarding `CCCN1C(=O)c2[nH]nc(-c3ccccc3O)c2C1c1ccc(OCc2ccccc2)c(OCC)c1` (stereo not given), the AC50 was 10 µM [falling, partial curve].
To `Cc1noc(C)c1COc1cccc(C(=O)N2CCN(C/C=C/c3ccccc3)CC2)c1` belongs 12.6 µM [falling, partial curve]; to `Fc1ccc(-c2nc3nc4ccccc4nc3n2Cc2ccco2)cc1`, 3.16 µM [falling, partial curve].
To `COC(=O)C(CC(=O)c1ccc(Br)cc1)n1ccnc1` (stereo not given) belongs 3.98 µM [falling, full curve]; to `COc1ccc(-c2nc3ccccc3s2)cc1NC(=O)COc1ccccc1C`, 1.26 µM [rising, full curve].
